EP4813464A2, “PEPTIDE FOR PREVENTING AND TREATING FIBROSIS” (Nibec Co., Ltd., priority 2021, dated 2026)
Not every detail of the peptide structures is certain; ends, links or a residue may be inferred. No end group written: not given here.

Assays:
COL1A2 = assay: Real-time PCR of collagen gene expression in IPF lung fibroblasts; type: cell-based, Human; conditions: 10 ng/ml TGF-β1 24 hours, then 200 µM peptide 24 hours (nintedanib 10 µM), *p<0.05, FIG. 6
[1] = tested on: animal model in which lung disease was induced with bleomycin; assay: Bleomycin-induced lung disease model, lung histology; type: in vivo, C57BL/6J mice; conditions: day 22, peptides 30 mg/kg subcutaneously three times a week; for fibrous deposition in the lungs (Sirius Red and hematoxylin/phloxine staining, microscopy): nintedanib 100 mg/kg orally daily, peptides compared to NT group and nintedanib group, FIG. 8c; for area of fibrosis (Sirius Red): compared to NT group and nintedanib-treated group, P<0.05, FIG. 8d
[2] = tested on: methionine-choline-deficient diet mouse model; assay: Methionine-choline-deficient diet mouse model, liver histology; type: in vivo, C57BL/6J mice; conditions: MCD diet 10 weeks, peptide 20 mg/kg, 12 administrations at 3-day intervals, compared to NT group or GLP-1 agonist (liraglutide 0.2 mg/kg) group; for NAFLD activity score: FIGs. 9b, 9c; for area of fibrosis (Masson's trichrome-positive area): FIGs. 9d, 9e
COL3A1 = assay: Real-time PCR of collagen gene expression in IPF lung fibroblasts; type: cell-based, Human; conditions: 10 ng/ml TGF-β1 24 hours, then 200 µM peptide 24 hours (nintedanib 10 µM), *p<0.05, FIG. 6
EpCAM = assay: Real-time PCR of MET marker in LX-2 cells (reprogramming); type: cell-based, Human; conditions: 10 ng/ml TGF-beta1 and 100 µM peptide, 24 hours, FIG. 7
N-cadherin = assay: Real-time PCR of EMT marker in LX-2 cells (reprogramming); type: cell-based, Human; conditions: 10 ng/ml TGF-beta1 and 100 µM peptide, 24 hours, FIG. 7
Smad2 = assay: Western blot of pSmad2 in TGF-β1-treated LX-2 cells; type: cell-based, Human; conditions: 10 ng/ml TGF-β1 24 hours, then 10, 100, or 200 µM peptide 24 hours, FIG. 5
Twist1 = assay: Real-time PCR of EMT marker in LX-2 cells (reprogramming); type: cell-based, Human; conditions: 10 ng/ml TGF-beta1 and 100 µM peptide, 24 hours, FIG. 7
Smad3 = assay: Western blot of pSmad3 in TGF-β1-treated LX-2 cells; type: cell-based, Human; conditions: 10 ng/ml TGF-β1 24 hours, then peptide 24 hours, from the concentration of 10 µM, FIG. 5
TGFβ receptor 1 = assay: Western blot of TGFβ receptor in TGF-β1-treated LX-2 cells; type: cell-based, Human; conditions: 10 ng/ml TGF-β1 24 hours, then 10, 100, or 200 µM peptide 24 hours, FIG. 5
E-cadherin = assay: Real-time PCR of MET marker in LX-2 cells (reprogramming); type: cell-based, Human; conditions: 10 ng/ml TGF-beta1 and 100 µM peptide, 24 hours, FIG. 7
Snail1 = assay: Real-time PCR of EMT marker in LX-2 cells (reprogramming); type: cell-based, Human; conditions: 10 ng/ml TGF-beta1 and 100 µM peptide, 24 hours, FIG. 7

Row | Substance | COL1A2 gene expression (COL1A2) | fibrous deposition in the lungs (Sirius Red and hematoxylin/phloxine staining, microscopy) [1] | area of fibrosis (Sirius Red) [1] | NAFLD activity score [2] | area of fibrosis (Masson's trichrome-positive area) [2] | COL3A1 gene expression (COL3A1) | gene expression of EpCAM (MET marker) (EpCAM) | gene expression of N-cadherin (EMT marker) (N-cadherin) | expression of pSmad2 (Smad2) | gene expression of Twist1 (EMT marker) (Twist1) | expression of pSmad3 (Smad3) | expression level of the TGFβ receptor (TGFβ receptor 1) | gene expression of E-cadherin (MET marker) (E-cadherin) | gene expression of Snail1 (EMT marker) (Snail1)
1 | YGLRSKSKKFRRPDIQYPDAT-NH2 [SEQ ID NO: 1] | significantly reduced | significantly reduce fibrosis | significant reduction in the area of fibrosis | significantly reduced | significantly reduce the area of fibrosis | significantly reduced |  |  |  |  |  |  |  | 
2 | GKCSTRGRKSSRRKK-NH2 [SEQ ID NO: 2, GKCSTRGRKSSRRKK] | significantly reduced | significantly reduce fibrosis | significant reduction in the area of fibrosis | significantly reduced | significantly reduce the area of fibrosis | significantly reduced | increased | decreased | decreased with an increase in the concentration | decreased | completely disappeared | no change | increased | decreased
